# These are yes or no findings as the source states them, for the method shown. Binding seen in cells or lysates may run through a third protein. A yes stands for co-enrichment or nearness to the bait. Other partners may have been found.
# Amino acid sequences for entries named in this document (tags omitted).
# UniProt P11881: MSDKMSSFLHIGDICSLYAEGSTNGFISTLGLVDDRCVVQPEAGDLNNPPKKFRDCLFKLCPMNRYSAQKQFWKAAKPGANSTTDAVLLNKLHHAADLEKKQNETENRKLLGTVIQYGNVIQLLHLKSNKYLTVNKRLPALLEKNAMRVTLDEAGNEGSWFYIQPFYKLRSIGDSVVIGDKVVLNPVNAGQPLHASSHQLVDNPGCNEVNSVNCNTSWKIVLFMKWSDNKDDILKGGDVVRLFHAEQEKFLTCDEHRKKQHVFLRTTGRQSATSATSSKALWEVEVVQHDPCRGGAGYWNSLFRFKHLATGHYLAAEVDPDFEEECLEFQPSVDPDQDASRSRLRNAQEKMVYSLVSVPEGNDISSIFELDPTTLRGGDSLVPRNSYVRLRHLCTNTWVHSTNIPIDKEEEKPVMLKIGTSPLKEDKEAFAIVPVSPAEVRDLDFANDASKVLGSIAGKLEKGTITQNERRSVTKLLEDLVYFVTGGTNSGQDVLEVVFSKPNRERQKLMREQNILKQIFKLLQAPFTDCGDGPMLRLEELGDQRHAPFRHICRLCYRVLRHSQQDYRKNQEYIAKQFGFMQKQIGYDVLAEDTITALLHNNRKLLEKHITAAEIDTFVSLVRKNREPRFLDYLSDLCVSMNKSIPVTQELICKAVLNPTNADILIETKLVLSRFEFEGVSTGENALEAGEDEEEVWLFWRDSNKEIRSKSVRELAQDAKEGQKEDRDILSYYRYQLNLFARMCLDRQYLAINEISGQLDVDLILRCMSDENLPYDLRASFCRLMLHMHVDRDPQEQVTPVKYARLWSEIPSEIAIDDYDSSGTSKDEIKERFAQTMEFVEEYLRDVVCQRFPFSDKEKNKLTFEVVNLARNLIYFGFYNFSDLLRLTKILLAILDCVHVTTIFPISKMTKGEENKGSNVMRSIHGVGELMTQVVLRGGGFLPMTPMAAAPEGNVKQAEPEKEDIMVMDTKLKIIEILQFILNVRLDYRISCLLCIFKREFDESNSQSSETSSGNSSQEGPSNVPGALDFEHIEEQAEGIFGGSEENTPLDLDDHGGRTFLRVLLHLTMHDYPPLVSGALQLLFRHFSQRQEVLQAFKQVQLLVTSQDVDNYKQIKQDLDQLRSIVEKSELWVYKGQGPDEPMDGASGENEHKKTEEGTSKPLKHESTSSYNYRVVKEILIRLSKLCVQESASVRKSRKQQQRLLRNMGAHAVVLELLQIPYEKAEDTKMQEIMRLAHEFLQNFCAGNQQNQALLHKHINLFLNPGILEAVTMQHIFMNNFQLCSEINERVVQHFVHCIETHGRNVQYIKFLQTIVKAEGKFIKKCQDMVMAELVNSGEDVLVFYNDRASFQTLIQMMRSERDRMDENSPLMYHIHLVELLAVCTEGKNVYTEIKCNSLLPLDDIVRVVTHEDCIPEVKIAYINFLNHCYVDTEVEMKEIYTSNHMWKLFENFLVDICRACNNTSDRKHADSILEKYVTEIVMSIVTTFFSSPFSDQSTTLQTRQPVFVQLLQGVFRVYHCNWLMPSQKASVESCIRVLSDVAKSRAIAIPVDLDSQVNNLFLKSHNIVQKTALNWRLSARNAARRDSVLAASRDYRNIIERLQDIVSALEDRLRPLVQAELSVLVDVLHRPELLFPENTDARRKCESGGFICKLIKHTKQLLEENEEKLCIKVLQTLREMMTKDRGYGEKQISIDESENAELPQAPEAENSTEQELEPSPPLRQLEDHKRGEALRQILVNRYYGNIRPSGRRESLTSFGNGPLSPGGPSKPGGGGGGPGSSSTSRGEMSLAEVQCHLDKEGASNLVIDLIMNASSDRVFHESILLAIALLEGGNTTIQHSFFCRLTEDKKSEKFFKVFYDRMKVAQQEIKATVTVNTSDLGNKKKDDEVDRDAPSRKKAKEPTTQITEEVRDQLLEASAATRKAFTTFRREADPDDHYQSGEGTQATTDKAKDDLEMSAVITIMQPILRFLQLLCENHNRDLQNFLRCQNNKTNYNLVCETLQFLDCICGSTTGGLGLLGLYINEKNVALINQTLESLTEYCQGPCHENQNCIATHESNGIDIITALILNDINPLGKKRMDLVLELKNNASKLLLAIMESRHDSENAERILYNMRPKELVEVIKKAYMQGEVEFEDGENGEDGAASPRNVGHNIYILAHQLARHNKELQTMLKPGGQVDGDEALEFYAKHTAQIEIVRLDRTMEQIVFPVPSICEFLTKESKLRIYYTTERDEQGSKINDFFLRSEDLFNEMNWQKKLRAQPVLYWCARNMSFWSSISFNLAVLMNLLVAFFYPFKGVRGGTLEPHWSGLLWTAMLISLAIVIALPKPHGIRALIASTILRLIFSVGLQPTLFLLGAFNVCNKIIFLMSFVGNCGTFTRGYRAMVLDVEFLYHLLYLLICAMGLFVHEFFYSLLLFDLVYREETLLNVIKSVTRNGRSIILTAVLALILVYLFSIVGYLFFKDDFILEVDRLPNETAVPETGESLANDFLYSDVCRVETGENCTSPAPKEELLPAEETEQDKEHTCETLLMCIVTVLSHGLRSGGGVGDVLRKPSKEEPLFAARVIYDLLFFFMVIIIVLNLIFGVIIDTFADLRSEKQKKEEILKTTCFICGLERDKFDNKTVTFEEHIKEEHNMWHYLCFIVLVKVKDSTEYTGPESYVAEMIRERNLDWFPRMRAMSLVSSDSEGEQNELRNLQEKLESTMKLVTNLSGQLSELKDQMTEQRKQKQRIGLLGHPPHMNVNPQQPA
# Target: T1, Recombinant, biotinylated Caspr2 extracellular domain (mouse) (UniProt E9QNF7)
# T1 sequence (chain, biotin (biotinylated in vivo)): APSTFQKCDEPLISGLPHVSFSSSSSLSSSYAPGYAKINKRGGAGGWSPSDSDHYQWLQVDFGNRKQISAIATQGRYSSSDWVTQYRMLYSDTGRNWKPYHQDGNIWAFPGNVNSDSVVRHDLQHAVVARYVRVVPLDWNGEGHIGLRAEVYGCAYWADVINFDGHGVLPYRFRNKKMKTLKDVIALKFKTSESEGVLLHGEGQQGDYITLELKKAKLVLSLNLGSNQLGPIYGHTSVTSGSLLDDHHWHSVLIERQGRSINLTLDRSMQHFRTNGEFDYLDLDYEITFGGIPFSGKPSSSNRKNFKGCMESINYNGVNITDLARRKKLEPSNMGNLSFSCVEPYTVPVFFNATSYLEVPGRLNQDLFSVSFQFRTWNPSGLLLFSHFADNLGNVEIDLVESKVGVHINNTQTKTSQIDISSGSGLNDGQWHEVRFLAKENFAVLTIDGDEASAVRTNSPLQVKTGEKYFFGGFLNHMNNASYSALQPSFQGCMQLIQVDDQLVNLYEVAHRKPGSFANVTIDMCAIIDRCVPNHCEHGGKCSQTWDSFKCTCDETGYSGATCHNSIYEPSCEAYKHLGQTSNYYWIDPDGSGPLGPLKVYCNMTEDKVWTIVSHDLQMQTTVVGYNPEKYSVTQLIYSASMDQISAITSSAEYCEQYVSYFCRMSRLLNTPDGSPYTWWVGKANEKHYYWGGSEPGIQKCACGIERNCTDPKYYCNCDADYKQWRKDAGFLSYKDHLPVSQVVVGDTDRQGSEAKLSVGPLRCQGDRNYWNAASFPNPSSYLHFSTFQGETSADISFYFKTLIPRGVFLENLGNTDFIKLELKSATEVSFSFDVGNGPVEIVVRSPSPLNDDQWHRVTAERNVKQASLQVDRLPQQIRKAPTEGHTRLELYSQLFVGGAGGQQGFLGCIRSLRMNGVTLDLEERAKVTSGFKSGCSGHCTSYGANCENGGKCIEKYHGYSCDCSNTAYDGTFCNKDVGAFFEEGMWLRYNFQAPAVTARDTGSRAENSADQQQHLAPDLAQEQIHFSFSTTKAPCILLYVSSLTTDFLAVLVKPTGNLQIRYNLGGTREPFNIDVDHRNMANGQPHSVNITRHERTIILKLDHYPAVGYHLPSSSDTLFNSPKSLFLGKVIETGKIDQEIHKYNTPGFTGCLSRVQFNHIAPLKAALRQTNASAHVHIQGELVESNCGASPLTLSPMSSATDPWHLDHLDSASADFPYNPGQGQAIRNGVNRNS
# Assay: affinity purification with mass spectrometry; biotinylated Caspr2 ECD on streptavidin-coated magnetic beads, incubated with lysate of P14 WT mouse cerebellar synaptosomes in hypo-osmotic shock buffer (150 mM NaCl, 10 mM Tris, pH 8); four washes; LC-MS/MS; control beads coated with contaminant proteins of the ECD purification; only the target purified
substance,measurement,value
"type 1 inositol 1,4,5-trisphosphate receptor (IP3R1), endogenous in mouse cerebellar synaptosomes (from UniProt P11881 1-2749)",binding,binds

# From article PMC7476715
